Assay results as given in the supplement of paper PMC10849652.
Some of the results follow.

Amino acid sequences for entries named in this document (tags omitted). A change or cut given only in a name is not applied to a line headed by its entry.
UniProt Q9H9E3: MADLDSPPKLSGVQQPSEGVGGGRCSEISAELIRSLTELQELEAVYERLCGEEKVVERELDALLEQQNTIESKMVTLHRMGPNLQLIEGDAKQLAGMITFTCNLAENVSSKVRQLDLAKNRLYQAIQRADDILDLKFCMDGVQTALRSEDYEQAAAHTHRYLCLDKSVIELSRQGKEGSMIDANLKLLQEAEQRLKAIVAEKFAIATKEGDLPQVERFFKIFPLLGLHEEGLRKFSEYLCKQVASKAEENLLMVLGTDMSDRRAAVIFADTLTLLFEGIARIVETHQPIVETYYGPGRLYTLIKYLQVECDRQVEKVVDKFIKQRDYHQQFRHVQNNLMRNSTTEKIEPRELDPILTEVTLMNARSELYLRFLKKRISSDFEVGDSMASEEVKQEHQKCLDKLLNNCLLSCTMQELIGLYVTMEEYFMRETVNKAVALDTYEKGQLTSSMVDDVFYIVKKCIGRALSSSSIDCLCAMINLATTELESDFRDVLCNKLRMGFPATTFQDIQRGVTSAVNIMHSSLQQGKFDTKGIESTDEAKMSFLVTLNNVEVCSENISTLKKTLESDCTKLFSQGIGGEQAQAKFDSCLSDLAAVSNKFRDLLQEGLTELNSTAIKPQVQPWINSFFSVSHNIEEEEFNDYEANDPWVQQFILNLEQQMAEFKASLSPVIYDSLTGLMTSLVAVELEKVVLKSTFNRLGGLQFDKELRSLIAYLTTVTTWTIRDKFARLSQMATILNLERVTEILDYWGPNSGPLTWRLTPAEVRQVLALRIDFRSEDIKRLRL
UniProt Q8N129: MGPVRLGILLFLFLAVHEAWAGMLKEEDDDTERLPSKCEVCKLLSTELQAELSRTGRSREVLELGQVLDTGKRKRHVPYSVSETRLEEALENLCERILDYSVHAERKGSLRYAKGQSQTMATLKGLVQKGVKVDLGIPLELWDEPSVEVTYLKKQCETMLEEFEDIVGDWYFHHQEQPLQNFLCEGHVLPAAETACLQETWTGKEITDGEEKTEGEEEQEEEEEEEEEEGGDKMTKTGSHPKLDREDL
UniProt Q99715: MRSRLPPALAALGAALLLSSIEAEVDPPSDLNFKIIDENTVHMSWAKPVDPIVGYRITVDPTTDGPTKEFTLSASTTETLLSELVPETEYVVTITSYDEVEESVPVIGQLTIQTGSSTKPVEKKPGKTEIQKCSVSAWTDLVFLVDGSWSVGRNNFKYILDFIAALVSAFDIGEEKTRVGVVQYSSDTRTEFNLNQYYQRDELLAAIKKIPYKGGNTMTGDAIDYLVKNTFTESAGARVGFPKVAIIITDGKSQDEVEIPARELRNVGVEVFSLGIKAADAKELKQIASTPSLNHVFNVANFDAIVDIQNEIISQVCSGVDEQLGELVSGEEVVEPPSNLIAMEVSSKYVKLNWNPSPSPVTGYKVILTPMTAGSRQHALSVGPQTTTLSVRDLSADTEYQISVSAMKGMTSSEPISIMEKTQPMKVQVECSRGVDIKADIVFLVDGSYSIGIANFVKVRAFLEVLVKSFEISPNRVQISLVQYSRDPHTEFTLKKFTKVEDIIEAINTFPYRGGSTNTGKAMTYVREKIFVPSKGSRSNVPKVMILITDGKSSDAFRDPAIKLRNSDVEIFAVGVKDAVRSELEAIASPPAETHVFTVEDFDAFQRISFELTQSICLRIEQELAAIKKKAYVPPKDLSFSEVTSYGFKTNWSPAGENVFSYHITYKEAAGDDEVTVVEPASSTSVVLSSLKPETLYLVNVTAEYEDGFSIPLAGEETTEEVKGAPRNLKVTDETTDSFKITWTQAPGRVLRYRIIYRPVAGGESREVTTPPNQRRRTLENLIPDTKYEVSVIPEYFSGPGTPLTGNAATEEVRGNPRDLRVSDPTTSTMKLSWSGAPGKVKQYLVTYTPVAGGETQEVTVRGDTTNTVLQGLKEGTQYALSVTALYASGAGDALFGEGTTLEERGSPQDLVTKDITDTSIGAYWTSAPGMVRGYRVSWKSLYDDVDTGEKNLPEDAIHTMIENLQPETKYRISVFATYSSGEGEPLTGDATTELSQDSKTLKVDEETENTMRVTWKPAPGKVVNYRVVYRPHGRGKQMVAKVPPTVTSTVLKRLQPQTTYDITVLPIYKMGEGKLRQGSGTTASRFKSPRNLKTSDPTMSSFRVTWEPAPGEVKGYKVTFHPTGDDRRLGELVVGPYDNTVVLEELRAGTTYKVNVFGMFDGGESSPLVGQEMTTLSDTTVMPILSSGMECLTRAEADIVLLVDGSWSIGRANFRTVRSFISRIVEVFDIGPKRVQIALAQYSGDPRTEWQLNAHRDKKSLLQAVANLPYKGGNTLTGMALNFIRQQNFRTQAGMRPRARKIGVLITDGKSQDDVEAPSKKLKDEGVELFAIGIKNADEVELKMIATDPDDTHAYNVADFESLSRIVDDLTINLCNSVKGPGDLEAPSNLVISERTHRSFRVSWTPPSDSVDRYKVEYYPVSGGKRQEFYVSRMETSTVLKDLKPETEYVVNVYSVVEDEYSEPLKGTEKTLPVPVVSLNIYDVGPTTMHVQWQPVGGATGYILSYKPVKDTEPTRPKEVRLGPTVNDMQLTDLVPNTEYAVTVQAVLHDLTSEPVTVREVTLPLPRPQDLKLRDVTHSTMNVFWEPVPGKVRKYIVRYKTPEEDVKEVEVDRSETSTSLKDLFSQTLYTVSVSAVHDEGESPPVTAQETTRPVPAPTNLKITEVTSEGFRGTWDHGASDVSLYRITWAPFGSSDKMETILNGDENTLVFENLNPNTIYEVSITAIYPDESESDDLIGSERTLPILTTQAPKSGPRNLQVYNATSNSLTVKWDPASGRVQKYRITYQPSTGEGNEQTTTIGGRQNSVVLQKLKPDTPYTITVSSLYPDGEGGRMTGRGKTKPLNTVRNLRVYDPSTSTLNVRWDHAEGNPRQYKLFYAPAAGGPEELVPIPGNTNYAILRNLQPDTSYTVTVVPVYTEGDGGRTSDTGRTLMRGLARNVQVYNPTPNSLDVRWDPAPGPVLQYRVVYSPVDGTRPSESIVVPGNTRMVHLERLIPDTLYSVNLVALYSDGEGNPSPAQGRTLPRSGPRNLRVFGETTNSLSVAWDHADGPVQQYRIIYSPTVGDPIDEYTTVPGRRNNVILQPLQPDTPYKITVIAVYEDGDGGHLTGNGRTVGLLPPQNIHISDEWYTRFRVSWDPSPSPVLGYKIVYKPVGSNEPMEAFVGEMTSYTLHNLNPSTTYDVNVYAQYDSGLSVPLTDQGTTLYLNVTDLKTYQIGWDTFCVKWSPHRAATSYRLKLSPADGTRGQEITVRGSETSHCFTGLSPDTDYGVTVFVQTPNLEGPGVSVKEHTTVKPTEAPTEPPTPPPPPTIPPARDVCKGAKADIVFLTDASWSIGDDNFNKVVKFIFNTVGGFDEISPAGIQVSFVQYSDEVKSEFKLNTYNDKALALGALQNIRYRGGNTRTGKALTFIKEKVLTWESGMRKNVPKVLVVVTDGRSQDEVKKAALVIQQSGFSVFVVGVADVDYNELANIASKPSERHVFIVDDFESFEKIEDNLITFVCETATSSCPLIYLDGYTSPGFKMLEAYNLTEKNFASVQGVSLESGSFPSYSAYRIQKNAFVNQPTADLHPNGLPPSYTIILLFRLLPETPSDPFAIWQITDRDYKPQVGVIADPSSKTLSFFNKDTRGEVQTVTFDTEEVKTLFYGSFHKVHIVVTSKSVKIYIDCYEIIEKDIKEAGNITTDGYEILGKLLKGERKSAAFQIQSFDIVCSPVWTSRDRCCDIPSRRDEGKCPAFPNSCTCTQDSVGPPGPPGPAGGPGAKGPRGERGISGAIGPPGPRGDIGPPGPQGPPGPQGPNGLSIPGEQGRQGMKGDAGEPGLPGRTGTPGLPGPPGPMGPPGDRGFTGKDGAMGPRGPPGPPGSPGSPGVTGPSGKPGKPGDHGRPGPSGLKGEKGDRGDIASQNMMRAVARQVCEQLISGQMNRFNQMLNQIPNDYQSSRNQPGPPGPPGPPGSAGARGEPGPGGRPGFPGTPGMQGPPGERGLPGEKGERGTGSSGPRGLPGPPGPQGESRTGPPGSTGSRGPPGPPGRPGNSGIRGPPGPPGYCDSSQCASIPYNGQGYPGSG
UniProt Q9Y2V7: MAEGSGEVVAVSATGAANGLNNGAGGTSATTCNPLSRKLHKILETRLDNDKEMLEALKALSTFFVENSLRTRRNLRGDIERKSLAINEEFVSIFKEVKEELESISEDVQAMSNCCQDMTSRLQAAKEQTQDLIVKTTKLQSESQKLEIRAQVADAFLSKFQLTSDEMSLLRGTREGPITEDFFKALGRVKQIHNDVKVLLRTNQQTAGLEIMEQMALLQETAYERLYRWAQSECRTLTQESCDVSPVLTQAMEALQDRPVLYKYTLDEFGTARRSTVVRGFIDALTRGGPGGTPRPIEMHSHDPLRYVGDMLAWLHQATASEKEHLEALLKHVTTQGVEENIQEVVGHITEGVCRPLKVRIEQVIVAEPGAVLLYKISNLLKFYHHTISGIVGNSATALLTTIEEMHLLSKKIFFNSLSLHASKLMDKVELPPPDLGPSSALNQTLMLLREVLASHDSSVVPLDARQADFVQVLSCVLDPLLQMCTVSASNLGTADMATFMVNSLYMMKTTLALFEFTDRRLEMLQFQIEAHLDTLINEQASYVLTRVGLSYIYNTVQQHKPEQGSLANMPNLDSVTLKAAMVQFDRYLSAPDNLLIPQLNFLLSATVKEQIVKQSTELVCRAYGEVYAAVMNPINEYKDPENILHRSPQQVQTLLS
UniProt Q8N9A8: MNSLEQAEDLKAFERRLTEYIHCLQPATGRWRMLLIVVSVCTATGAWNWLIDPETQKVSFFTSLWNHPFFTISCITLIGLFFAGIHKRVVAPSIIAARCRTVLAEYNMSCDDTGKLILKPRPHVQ
UniProt P56749: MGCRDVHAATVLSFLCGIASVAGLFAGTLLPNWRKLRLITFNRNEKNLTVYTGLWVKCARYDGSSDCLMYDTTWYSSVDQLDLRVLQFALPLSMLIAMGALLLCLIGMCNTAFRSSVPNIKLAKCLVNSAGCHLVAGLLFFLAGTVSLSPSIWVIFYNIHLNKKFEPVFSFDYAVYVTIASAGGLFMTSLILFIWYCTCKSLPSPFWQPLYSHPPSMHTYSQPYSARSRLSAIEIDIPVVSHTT
UniProt P51788: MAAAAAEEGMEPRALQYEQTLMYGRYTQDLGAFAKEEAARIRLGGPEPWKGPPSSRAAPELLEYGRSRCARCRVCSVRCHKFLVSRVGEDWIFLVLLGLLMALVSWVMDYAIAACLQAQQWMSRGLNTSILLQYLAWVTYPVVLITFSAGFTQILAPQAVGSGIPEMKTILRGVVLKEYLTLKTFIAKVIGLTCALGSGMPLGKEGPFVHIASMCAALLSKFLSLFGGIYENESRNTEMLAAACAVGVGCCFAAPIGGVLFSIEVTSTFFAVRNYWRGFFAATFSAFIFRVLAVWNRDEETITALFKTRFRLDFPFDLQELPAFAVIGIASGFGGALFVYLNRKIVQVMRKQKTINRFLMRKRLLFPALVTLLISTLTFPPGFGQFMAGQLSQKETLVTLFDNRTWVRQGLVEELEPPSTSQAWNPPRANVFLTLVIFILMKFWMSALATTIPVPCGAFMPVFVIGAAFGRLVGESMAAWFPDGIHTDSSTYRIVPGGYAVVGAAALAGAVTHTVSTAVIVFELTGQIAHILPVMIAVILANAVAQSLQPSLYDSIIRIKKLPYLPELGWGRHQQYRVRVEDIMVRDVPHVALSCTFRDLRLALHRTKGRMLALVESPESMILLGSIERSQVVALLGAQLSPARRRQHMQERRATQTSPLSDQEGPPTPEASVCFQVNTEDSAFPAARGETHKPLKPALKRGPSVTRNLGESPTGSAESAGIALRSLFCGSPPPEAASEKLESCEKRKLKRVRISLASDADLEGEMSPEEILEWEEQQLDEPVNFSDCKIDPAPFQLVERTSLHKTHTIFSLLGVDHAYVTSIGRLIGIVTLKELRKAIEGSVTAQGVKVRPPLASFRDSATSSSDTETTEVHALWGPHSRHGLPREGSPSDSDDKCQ
UniProt Q92478: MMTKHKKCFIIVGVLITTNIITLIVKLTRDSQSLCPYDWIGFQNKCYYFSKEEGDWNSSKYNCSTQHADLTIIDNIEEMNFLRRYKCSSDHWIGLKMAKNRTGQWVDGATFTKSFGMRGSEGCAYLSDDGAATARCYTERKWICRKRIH
UniProt Q9Y240: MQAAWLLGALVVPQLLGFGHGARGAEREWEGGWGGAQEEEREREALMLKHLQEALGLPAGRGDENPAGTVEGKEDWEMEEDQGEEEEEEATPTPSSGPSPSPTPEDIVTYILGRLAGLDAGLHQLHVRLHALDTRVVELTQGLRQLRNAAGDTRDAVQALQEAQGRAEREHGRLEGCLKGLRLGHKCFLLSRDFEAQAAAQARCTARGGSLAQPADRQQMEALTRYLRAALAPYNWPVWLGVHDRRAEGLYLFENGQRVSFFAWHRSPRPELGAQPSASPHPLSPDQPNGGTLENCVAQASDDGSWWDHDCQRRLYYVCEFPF
UniProt Q86WW8: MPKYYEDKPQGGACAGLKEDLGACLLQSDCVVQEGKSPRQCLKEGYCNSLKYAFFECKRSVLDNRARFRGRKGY

What was measured:
Assay in all cases: log2 fold change, soluble protein after heating vs DMSO (PISA); higher = thermal stabilisation; K562 cells, 10 uM, 30 min; active = over 0.2 and 3.5 SD of the protein, either way, in both replicates (recomputed)
[1] = compound: CC[C@H](C)N1C=C(C2=C(C=C(C=C21)C3=CN=C(C=C3)N4CCNCC4)C(=O)NCC5=C(C=C(NC5=O)C)C)C
Outline: (§1)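 Thermal stability values are relative to control samples and come from duplicates. They are expressed as log2 fold changes. For measurement, K562 cells (2×10^6 cells/mL) received 10 μM compound for 30 min, and aliquots were heated for 3 min over 48°C-58°C, pooled, and extracted at 4°C in PBS with 0.5% NP-40. Soluble protein, the supernatant after 21,000xg for 90 min, was quantified by TMTpro 16plex LC-MS/MS with equalised channel sums.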

epoxomicin = compound: CC[C@H](C)[C@@H](C(=O)N[C@@H]([C@@H](C)O)C(=O)N[C@@H](CC(C)C)C(=O)[C@]1(CO1)C)NC(=O)[C@H]([C@@H](C)CC)N(C)C(=O)C [epoxomicin]
Outline: as §1

[2] = compound: CCn1c(C(=O)N(C2CC2)C2CC2)cc2c3c(ncn3C)c(Nc3cc(C)n(C)n3)nc21
Outline: as §1

[3] = compound: CCn1cc(-c2ccnc3[nH]c(-c4cccc(CN(C)C)c4)cc23)c(-c2ccc(NC(=O)N(C)C)cc2)n1
Outline: as §1

[4] = compound: CN(C)CC(=O)Nc1ccc2[nH]c(=O)c3ccccc3c2c1
Outline: as §1

[5] = compound: CN1C2=C(C3=C1C(=O)N(N=C3)CC4=CC(=CC=C4)N)SC(=C2)S(=O)C
Outline: as §1

[6] = compound: CN1CCC(CNc2ccc3ncc(-c4cccc(OC(F)(F)F)c4)n3n2)CC1
Outline: as §1

saracatinib = compound: CN1CCN(CCOc2cc(OC3CCOCC3)c3c(Nc4c(Cl)ccc5c4OCO5)ncnc3c2)CC1 [saracatinib]
Outline: as §1

sotrastaurin = compound: CN1CCN(c2nc(C3=C(c4c[nH]c5ccccc45)C(=O)NC3=O)c3ccccc3n2)CC1 [sotrastaurin]
Outline: as §1

alvocidib = compound: CN1CC[C@H](c2c(O)cc(O)c3c(=O)cc(-c4ccccc4Cl)oc23)[C@H](O)C1 [alvocidib]
Outline: as §1

Tubastatin A = compound: CN1CCc2c(c3ccccc3n2Cc2ccc(C(=O)NO)cc2)C1 [Tubastatin A]
Outline: as §1

[7] = compound: CNC(=O)C1=CC=CC=C1NC2=NC(=NC=C2Cl)NC3=C(C=C(C=C3)N4CCOCC4)OC
Outline: as §1

defactinib = compound: CNC(=O)c1ccc(Nc2ncc(C(F)(F)F)c(NCc3nccnc3N(C)S(C)(=O)=O)n2)cc1 [defactinib]
Outline: as §1

[8] = compound: CNc1nc(-c2ccc3c(N)n[nH]c3c2)cc(N2C[C@@H](C(=O)NC3CCCCC3)CC[C@H]2C)n1
Outline: as §1

[9] = compound: COC(=O)[C@H](CCSC)NC(=O)C1=C(C=C(C=C1)NC[C@H](CS)N)C2=CC=CC=C2
Outline: as §1

volasertib = compound: CC[C@@H]1C(=O)N(C)c2cnc(Nc3ccc(C(=O)N[C@H]4CC[C@H](N5CCN(CC6CC6)CC5)CC4)cc3OC)nc2N1C(C)C [volasertib]
Outline: as §1

rosiglitazone = compound: CN(CCOC1=CC=C(C=C1)C[C@H]2C(=O)NC(=O)S2)C3=CC=CC=N3 (racemic) [rosiglitazone]
Outline: as §1

Measured: log2 fold change

COG4 (UniProt Q9H9E3)
inactive: [1] -0.19 | epoxomicin -0.222 | [2] -0.049 | [3] 0.018 | [4] 0.129 | [5] 0.087 | [6] 0.021 | saracatinib -0.201 | sotrastaurin -0.053 | alvocidib 0.143 | Tubastatin A 0.136 | [7] -0.096 | defactinib 0.183 | [8] -0.064 | [9] 0.19

COG1 (UniProt Q8WTW3)
inactive: volasertib -0.025 | [3] 0.037 | [5] 0.159 | [6] -0.044 | saracatinib -0.208 | sotrastaurin -0.015 | alvocidib 0.167 | Tubastatin A 0.251 | [8] 0.099

CHST10 (UniProt O43529)
inactive: volasertib -0.146 | [1] 0.002 | epoxomicin -0.019 | [3] -0.021 | [6] -0.108 | sotrastaurin -0.01 | Tubastatin A -0.037 | [7] 0.035

CNPY4 (UniProt Q8N129)
inactive: volasertib 0.05 | [1] 0.066 | [2] 0.037 | [3] -0.045 | [4] 0.003 | rosiglitazone 0.05 | [5] 0.016 | [6] -0.066 | saracatinib 0.035 | sotrastaurin -0.02 | alvocidib 0.084 | Tubastatin A 0.046 | [7] 0.001 | defactinib -0.028 | [8] -0.073 | [9] -0.092

CIP2A (UniProt Q8TCG1)
inactive: epoxomicin -0.334 | [3] -0.173 | [5] -0.007 | [6] -0.344 | saracatinib -0.443 | sotrastaurin 0.733 | [8] -0.409

CHPF2 (UniProt Q9P2E5)
inactive: volasertib -0.019 | [1] -0.011 | epoxomicin -0.021 | [2] -0.069 | [3] 0.065 | [4] 0.028 | rosiglitazone 0.053 | [5] 0.176 | [6] 0.123 | saracatinib -0.247 | sotrastaurin -0.009 | alvocidib 0.198 | Tubastatin A 0.185 | [7] 0.028 | defactinib 0.112 | [8] -0.036 | [9] -0.196

COL12A1 (UniProt Q99715)
inactive: volasertib -0.312 | epoxomicin -0.004 | sotrastaurin -0.063 | Tubastatin A -0.109

COG6 (UniProt Q9Y2V7)
inactive: volasertib -0.053 | [2] -0.104 | [4] 0.087 | [5] 0.208 | saracatinib -0.292 | alvocidib -0.031 | Tubastatin A 0.083 | [7] 0.062 | defactinib 0.082 | [8] 0.009 | [9] -0.356

CNEP1R1 isoform 2 (UniProt Q8N9A8)
inactive: [2] 0.037 | [4] 0.153 | alvocidib 0.288 | Tubastatin A 0.051 | [7] 0.003 | defactinib -0.02 | [9] -0.014

CLDN12 (UniProt P56749)
inactive: epoxomicin -0.138 | rosiglitazone -0.035 | sotrastaurin -0.077

CLCN2 (UniProt P51788)
inactive: volasertib -0.012 | [1] -0.109 | epoxomicin -0.117 | [2] -0.103 | [3] 0.078 | [4] -0.071 | rosiglitazone 0.069 | [5] -0.023 | [6] -0.004 | saracatinib -0.006 | sotrastaurin -0.024 | alvocidib -0.009 | [7] -0.091 | defactinib -0.001 | [8] -0.083 | [9] 0.017

2 entries drawn at random from those above:
CLCN2 (UniProt P51788)
inactive: volasertib -0.012 | [1] -0.109 | epoxomicin -0.117 | [2] -0.103 | [3] 0.078 | [4] -0.071 | rosiglitazone 0.069 | [5] -0.023 | [6] -0.004 | saracatinib -0.006 | sotrastaurin -0.024 | alvocidib -0.009 | [7] -0.091 | defactinib -0.001 | [8] -0.083 | [9] 0.017

COG6 (UniProt Q9Y2V7)
inactive: volasertib -0.053 | [2] -0.104 | [4] 0.087 | [5] 0.208 | saracatinib -0.292 | alvocidib -0.031 | Tubastatin A 0.083 | [7] 0.062 | defactinib 0.082 | [8] 0.009 | [9] -0.356

Later entries.

CMYA5 (UniProt Q8N3K9)
inactive: [1] -0.051 | rosiglitazone -0.026 | sotrastaurin 0.276 | alvocidib 0.112 | Tubastatin A -0.059

COG7 (UniProt P83436)
inactive: volasertib -0.526 | epoxomicin -0.248 | [2] 0.195 | [4] 0.031 | [5] 0.124 | saracatinib -0.041 | alvocidib 0.027 | [7] 0.062 | defactinib 0.009 | [8] 0.066 | [9] -0.056

CLEC2B (UniProt Q92478)
inactive: volasertib -0.385

CLEC11A (UniProt Q9Y240)
inactive: volasertib -0.093 | [2] -0.058 | [3] -0.02 | [5] 0.064 | [6] 0.193 | saracatinib -0.109 | Tubastatin A 0.069 | [7] -0.017 | [8] 0.092

CHUK (UniProt O15111)
inactive: epoxomicin -0.267 | [3] -0.316 | [4] 0.117 | [5] 0.327 | [6] 0.021 | saracatinib -0.144 | alvocidib 0.241 | Tubastatin A 0.171 | defactinib 0.175 | [8] 0.123 | [9] -0.222

COA5 (UniProt Q86WW8)
inactive: epoxomicin 0.042 | [2] 0.009 | [4] 0.015 | [5] 0.004 | saracatinib -0.002 | alvocidib 0.15 | [7] -0.071 | defactinib 0.062 | [8] -0.064 | [9] 0.05
